Source: patent US20120141538A1
These are yes or no findings as the source states them, for the method shown. Some results given as binding are weak or reduced against the parent protein; the word gives no strength.

By UniProt entry, the sequences of proteins in these tests, tags left out. Where a name states a change or a piece, a line headed by the entry shows the natural chain unless it says otherwise.
UniProt P49238: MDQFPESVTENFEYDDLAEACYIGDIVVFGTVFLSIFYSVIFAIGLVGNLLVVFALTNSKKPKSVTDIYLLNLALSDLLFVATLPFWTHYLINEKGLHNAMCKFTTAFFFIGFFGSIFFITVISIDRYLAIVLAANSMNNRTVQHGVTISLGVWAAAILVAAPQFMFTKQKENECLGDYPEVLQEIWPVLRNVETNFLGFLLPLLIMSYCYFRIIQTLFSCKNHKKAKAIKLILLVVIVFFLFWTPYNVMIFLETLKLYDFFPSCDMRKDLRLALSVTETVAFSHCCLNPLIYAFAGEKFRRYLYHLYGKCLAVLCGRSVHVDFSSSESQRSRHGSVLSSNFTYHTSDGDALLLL
UniProt P78423: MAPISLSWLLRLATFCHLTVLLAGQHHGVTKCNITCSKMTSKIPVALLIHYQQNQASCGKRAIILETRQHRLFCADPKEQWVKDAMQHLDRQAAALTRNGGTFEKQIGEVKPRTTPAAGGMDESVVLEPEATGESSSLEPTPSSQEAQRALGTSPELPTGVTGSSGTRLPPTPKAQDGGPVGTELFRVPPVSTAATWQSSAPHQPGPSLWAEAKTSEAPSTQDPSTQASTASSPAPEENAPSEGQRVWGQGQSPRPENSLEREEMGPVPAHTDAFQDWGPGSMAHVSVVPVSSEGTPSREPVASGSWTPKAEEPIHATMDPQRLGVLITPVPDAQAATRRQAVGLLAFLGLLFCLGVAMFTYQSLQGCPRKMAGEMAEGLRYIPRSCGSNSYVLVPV

Biological target: human CX3CR1 receptor (human) (UniProt P49238)
Experiment: competitive radioligand binding on CHO-CX3CR1 cells

binding: binds
Substance: CX3CL1 (native human soluble chemokine) (from UniProt P78423 25-100) (ligand)
